# ± gives the standard deviation of the averaged measurements. The list shows a part of the results.
# Amino acid sequences for entries named in this document (tags omitted). A change or cut given only in a name is not applied to a line headed by its entry.
# UniProt O60664: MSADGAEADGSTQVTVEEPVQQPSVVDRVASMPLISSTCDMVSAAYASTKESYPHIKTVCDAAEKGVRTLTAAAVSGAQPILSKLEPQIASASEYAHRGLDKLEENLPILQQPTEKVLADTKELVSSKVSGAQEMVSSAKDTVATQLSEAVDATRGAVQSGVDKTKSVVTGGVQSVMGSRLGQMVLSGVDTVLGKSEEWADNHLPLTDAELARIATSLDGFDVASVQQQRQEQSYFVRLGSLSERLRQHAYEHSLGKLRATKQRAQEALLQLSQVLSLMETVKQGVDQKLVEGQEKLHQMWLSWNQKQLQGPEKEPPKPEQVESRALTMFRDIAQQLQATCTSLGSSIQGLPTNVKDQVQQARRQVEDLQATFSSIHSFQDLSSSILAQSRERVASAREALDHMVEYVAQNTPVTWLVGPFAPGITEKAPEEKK
# UniProt O14578, whole entry: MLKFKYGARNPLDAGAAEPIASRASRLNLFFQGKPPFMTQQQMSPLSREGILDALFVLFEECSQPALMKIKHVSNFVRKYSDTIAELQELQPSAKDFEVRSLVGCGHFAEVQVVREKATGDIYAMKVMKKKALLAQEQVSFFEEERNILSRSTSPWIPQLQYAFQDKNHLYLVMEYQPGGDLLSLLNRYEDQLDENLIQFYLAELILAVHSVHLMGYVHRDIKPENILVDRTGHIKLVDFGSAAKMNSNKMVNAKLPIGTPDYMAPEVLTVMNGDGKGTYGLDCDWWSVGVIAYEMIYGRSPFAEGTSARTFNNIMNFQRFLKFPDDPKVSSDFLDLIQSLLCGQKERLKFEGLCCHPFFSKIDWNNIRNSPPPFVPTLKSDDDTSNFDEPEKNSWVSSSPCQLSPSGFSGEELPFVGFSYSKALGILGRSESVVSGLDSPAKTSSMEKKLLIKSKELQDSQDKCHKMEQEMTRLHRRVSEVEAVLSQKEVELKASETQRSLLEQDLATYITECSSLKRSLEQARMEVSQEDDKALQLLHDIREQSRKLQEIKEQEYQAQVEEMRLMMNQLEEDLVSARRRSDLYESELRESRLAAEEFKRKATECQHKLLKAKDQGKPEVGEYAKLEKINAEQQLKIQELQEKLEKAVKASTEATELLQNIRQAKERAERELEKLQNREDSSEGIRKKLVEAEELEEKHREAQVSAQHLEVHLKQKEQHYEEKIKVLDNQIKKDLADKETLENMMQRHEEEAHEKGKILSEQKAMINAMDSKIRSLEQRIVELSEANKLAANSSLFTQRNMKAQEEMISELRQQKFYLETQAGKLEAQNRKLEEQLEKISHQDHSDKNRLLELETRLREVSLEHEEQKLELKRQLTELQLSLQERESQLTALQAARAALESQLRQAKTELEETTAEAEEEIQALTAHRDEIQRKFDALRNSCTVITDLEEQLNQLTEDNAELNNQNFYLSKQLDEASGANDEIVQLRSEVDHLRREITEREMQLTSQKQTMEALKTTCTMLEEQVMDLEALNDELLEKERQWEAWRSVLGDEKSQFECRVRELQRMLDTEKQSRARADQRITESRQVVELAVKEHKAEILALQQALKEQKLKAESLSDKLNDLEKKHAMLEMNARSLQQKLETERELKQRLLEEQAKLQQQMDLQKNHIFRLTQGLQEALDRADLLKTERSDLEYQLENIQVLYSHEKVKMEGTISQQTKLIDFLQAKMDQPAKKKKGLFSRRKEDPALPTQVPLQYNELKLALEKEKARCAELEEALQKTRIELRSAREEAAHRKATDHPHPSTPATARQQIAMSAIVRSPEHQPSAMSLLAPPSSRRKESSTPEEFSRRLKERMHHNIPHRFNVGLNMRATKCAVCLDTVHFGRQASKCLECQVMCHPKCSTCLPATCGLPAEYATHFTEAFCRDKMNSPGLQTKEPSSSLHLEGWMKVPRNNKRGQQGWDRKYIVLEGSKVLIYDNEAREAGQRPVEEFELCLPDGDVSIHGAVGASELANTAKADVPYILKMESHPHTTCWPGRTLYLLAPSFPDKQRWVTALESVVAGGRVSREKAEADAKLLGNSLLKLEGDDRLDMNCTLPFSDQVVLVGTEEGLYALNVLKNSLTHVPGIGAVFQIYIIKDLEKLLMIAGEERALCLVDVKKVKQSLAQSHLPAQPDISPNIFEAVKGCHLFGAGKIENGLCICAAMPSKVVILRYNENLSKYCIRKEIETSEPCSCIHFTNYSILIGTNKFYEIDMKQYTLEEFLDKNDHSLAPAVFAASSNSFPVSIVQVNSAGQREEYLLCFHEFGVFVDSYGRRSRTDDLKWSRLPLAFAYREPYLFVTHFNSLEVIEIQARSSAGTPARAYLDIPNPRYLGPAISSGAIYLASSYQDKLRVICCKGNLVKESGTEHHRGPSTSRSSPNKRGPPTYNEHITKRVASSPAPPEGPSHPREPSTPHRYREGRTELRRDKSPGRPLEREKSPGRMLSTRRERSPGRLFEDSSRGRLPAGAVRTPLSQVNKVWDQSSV
# UniProt O00186: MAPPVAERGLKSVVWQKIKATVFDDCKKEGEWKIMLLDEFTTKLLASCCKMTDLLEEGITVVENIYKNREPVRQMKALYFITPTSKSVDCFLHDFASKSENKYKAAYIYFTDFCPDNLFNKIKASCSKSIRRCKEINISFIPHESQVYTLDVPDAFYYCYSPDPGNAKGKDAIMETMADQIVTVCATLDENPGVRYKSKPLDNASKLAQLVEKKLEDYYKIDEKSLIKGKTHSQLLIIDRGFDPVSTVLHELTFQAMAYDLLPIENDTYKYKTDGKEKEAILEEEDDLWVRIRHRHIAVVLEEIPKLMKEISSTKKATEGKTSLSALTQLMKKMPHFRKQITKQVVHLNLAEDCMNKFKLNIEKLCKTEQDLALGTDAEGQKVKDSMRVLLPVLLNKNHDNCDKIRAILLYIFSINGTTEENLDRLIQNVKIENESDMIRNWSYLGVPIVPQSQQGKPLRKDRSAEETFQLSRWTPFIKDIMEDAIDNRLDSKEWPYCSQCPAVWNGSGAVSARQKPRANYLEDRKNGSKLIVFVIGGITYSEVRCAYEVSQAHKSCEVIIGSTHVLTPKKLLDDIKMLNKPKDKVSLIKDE
# UniProt O14818: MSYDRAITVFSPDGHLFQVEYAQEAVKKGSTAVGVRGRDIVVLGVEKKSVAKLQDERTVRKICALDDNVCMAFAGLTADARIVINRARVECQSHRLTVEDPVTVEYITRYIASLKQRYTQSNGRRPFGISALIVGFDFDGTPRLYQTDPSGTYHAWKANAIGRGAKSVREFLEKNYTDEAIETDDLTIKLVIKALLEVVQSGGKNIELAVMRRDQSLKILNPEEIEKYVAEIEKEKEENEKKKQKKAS
# UniProt O43156, whole entry: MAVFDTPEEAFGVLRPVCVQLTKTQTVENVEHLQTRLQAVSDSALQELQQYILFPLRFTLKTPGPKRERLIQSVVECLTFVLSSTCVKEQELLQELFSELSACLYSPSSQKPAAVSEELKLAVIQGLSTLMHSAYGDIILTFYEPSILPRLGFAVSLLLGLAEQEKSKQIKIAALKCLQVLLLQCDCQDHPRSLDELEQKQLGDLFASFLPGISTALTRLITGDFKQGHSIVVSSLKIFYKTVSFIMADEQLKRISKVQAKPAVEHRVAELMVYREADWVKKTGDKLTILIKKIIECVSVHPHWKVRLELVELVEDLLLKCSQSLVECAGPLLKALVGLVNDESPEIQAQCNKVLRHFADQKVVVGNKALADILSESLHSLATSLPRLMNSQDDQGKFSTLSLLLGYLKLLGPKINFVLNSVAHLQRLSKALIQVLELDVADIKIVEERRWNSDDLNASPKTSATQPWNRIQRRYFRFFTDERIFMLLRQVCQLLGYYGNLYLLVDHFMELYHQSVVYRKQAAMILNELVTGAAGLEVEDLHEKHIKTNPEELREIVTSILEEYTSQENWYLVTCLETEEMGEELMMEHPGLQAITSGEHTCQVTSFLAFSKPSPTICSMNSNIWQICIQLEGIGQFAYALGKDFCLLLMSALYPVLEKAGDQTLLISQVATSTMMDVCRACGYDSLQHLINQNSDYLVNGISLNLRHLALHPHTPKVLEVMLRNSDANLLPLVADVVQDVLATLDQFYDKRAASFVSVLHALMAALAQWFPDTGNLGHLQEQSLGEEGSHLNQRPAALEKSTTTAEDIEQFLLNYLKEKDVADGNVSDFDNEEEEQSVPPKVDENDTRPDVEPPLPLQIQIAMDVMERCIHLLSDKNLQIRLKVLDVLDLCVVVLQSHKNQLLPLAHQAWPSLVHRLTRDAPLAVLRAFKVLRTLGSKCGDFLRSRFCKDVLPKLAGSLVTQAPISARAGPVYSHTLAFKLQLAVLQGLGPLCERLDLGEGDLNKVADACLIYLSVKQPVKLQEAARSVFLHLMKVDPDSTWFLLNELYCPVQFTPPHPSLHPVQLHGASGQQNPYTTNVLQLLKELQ
# UniProt O60830: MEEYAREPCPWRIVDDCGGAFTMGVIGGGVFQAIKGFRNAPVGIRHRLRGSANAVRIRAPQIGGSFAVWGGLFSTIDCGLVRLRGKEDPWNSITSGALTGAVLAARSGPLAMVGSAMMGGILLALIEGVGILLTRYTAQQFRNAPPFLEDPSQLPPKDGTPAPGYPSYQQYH
# UniProt O14523: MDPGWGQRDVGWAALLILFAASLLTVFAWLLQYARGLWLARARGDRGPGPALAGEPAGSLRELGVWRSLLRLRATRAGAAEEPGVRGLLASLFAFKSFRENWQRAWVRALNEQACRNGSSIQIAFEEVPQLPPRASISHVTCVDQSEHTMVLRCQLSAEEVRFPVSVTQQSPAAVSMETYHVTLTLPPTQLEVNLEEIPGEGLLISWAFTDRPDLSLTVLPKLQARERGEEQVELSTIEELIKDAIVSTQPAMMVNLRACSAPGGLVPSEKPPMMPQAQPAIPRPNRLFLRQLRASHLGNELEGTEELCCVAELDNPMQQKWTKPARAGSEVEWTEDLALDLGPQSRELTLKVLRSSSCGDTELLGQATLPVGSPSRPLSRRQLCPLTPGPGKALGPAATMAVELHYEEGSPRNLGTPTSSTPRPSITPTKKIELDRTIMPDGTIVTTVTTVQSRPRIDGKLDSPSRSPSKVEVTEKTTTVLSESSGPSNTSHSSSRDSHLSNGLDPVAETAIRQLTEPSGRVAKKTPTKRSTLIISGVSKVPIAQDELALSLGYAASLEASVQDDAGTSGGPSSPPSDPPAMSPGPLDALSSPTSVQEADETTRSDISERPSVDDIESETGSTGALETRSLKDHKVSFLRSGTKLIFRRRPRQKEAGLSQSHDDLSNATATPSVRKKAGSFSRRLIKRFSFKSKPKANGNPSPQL
# UniProt O43719: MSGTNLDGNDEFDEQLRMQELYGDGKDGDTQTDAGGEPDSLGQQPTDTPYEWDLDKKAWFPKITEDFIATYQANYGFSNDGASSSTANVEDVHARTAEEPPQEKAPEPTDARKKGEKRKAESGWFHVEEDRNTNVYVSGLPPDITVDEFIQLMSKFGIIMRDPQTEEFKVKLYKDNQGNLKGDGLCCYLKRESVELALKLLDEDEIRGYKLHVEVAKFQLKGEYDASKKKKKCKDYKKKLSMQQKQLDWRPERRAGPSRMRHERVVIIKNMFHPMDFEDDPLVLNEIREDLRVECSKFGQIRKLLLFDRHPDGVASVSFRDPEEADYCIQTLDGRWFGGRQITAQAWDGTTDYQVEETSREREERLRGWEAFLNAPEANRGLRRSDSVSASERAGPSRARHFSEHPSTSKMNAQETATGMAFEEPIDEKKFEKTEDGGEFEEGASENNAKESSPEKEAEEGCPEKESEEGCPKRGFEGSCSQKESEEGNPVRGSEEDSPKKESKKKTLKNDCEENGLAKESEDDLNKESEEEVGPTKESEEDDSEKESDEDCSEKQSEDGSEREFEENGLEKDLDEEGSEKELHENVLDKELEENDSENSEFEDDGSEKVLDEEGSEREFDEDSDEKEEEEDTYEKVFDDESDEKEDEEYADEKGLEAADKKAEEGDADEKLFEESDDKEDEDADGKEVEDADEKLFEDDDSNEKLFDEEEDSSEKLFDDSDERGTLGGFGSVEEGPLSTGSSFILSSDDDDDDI
# UniProt O14773: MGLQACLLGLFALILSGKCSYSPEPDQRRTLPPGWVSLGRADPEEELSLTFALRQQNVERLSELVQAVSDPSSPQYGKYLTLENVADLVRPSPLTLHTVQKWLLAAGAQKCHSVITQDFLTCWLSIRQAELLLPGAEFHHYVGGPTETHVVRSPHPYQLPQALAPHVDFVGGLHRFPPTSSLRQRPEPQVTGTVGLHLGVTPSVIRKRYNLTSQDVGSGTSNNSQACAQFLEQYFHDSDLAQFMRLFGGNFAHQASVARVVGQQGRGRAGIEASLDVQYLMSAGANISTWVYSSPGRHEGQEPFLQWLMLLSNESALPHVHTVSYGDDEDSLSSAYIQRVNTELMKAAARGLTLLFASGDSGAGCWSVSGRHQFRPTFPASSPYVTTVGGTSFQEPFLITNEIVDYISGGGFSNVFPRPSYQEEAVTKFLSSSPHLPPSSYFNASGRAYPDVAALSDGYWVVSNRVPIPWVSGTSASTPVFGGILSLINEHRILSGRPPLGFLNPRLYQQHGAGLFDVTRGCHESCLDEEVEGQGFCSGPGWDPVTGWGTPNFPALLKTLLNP
# Compound: Nc1nc2c(ncn2[C@@H]2O[C@H](COP(=O)(O)OP(=O)(O)OP(=O)(O)O)[C@@H](O)[C@H]2O)c(=O)[nH]1 [guanosine triphosphate]
# Assay: NP40-soluble protein abundance relative to vehicle (solubility fold change) (ratio); higher = more soluble protein in presence of GTP
# Method in brief: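 Across three independent experiments, values are fold changes against the detergent-processed vehicle for each replicate, based on vsn-normalised intensities. The samples were Jurkat crude lysate treated with eight concentrations (0.1 to 10 mM) for 10 min at room temperature and then 3 min at 37 °C. Lysate was solubilised with 0.8% NP40 and benzonase, ultracentrifuged, and the supernatant analysed by TMT-labelled LC-MS/MS.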
Target,NP40-soluble protein abundance (concentration: 0.1mM),NP40-soluble protein abundance (concentration: 0.5mM),NP40-soluble protein abundance (concentration: 1mM),NP40-soluble protein abundance (concentration: 2mM),NP40-soluble protein abundance (concentration: 4mM),NP40-soluble protein abundance (concentration: 6mM),NP40-soluble protein abundance (concentration: 8mM),NP40-soluble protein abundance (concentration: 10mM)
CCNT1 (UniProt O60563),0.958 ± 0.073,1.03 ± 0.054,1.05 ± 0.1,1.15 ± 0.0016,1.28 ± 0.11,1.43 ± 0.039,1.51 ± 0.19,1.68 ± 0.11
UniProt O60664,0.884 ± 0.051,0.851 ± 0.065,0.892 ± 0.079,0.848 ± 0.11,0.828 ± 0.1,0.851 ± 0.11,0.835 ± 0.12,0.874 ± 0.087
BCAT2 (UniProt O15382),1.01 ± 0.052,1.06 ± 0.039,0.934 ± 0.027,0.969 ± 0.047,0.908 ± 0.049,0.921 ± 0.03,0.871 ± 0.018,0.857 ± 0.077
UniProt O14578-4,0.977 ± 0.037,1.002 ± 0.01,1.01 ± 0.011,0.973 ± 0.024,0.975 ± 0.031,0.9786 ± 0.006,0.993 ± 0.052,0.991 ± 0.059
M0QYC5 and related entries (UniProt O75182),1.24 ± 0.14,1.22 ± 0.16,1.17 ± 0.12,1.28 ± 0.11,1.2 ± 0.059,1.21 ± 0.036,1.18 ± 0.076,1.16 ± 0.12
HGS (UniProt O14964),0.95 ± 0.063,0.937 ± 0.071,0.918 ± 0.064,0.869 ± 0.071,0.865 ± 0.05,0.863 ± 0.072,0.877 ± 0.073,0.863 ± 0.065
UniProt O60784 and related entries,0.885 ± 0.072,0.836 ± 0.06,0.869 ± 0.069,0.835 ± 0.089,0.86 ± 0.077,0.847 ± 0.098,0.829 ± 0.09,0.86 ± 0.067
STXBP3 (UniProt O00186),0.996 ± 0.042,1.02 ± 0.064,0.935 ± 0.037,0.905 ± 0.022,0.901 ± 0.019,0.917 ± 0.029,0.8772 ± 0.0075,0.843 ± 0.066
UniProt O14818 and related entries,0.972 ± 0.015,1.03 ± 0.028,1.02 ± 0.075,1.03 ± 0.12,1.05 ± 0.13,1.09 ± 0.14,1.06 ± 0.14,1.03 ± 0.15
UniProt O60341,1.01 ± 0.025,1.06 ± 0.028,1.02 ± 0.037,1.08 ± 0.064,1.07 ± 0.11,1.08 ± 0.1,1.06 ± 0.11,1.05 ± 0.079
M0QYS1 and related entries (UniProt P40429),0.978 ± 0.097,1.01 ± 0.094,1.01 ± 0.15,0.979 ± 0.22,0.894 ± 0.26,0.82 ± 0.22,0.69 ± 0.17,0.839 ± 0.22
UniProt O60749 and related entries,0.982 ± 0.021,0.964 ± 0.029,0.956 ± 0.035,0.904 ± 0.034,0.921 ± 0.05,0.912 ± 0.048,0.916 ± 0.055,0.89 ± 0.03
MAST3 (UniProt O60307),1.241 ± 0.0039,1.43 ± 0.14,1.46 ± 0.03,1.522 ± 0.011,1.4506 ± 0.0012,1.35 ± 0.096,1.46 ± 0.1,1.49 ± 0.073
SLC9A3R1 (UniProt O14745),0.886 ± 0.081,0.901 ± 0.099,0.927 ± 0.096,0.877 ± 0.11,0.868 ± 0.11,0.888 ± 0.12,0.885 ± 0.088,0.889 ± 0.11
UniProt O00264 and related entries,0.869 ± 0.17,0.823 ± 0.1,1.01 ± 0.1,0.986 ± 0.072,0.949 ± 0.091,0.943 ± 0.068,0.857 ± 0.19,1.02 ± 0.1
UniProt O43156,1.02 ± 0.069,1.02 ± 0.085,0.951 ± 0.06,0.974 ± 0.1,0.96 ± 0.087,0.926 ± 0.067,0.887 ± 0.035,0.911 ± 0.044
UniProt O60502 and related entries,0.991 ± 0.014,1 ± 0.029,0.9666 ± 0.0021,0.968 ± 0.016,0.953 ± 0.013,0.9433 ± 0.009,0.919 ± 0.023,0.919 ± 0.011

Target,NP40-soluble protein abundance (concentration: 0.1mM),NP40-soluble protein abundance (concentration: 0.5mM),NP40-soluble protein abundance (concentration: 1mM),NP40-soluble protein abundance (concentration: 2mM),NP40-soluble protein abundance (concentration: 4mM),NP40-soluble protein abundance (concentration: 6mM),NP40-soluble protein abundance (concentration: 8mM),NP40-soluble protein abundance (concentration: 10mM)
UniProt O60293 and related entries,0.995 ± 0.041,1.02 ± 0.046,1.08 ± 0.08,1.1 ± 0.097,1.12 ± 0.1,1.13 ± 0.095,1.16 ± 0.096,1.17 ± 0.12
UniProt O60830 and related entries,1.82 ± 0.63,1 ± 0.039,0.957 ± 0.15,1.01 ± 0.13,1 ± 0.11,0.969 ± 0.13,0.942 ± 0.051,0.955 ± 0.045
ARPC2 (UniProt O15144),0.993 ± 0.022,1.07 ± 0.068,0.946 ± 0.025,0.977 ± 0.063,0.947 ± 0.039,0.971 ± 0.044,0.9041 ± 0.0029,0.882 ± 0.054
UniProt O14523 and related entries,0.963 ± 0.087,1.03 ± 0.081,1.02 ± 0.054,0.999 ± 0.051,1.07 ± 0.049,0.97 ± 0.047,1.03 ± 0.085,1.02 ± 0.053
XPO1 (UniProt O14980),1.01 ± 0.027,1.02 ± 0.033,0.936 ± 0.022,0.926 ± 0.072,0.916 ± 0.054,0.918 ± 0.033,0.882 ± 0.023,0.848 ± 0.044
UniProt O14647 and related entries,1.09 ± 0.07,1.05 ± 0.066,1.25 ± 0.088,1.23 ± 0.054,1.34 ± 0.1,1.47 ± 0.092,1.56 ± 0.22,1.68 ± 0.23
KPNA4 (UniProt O00629),0.989 ± 0.054,1.05 ± 0.054,1.06 ± 0.048,1.02 ± 0.067,1.03 ± 0.046,1.05 ± 0.095,1.07 ± 0.038,1.05 ± 0.063
UniProt O43491-4|E9PHY5 and related entries,0.951 ± 0.068,0.947 ± 0.066,0.916 ± 0.058,0.853 ± 0.073,0.843 ± 0.08,0.875 ± 0.069,0.897 ± 0.066,0.87 ± 0.061
ZNF609 (UniProt O15014),1.01 ± 0.058,1 ± 0.031,1.05 ± 0.015,1.07 ± 0.071,1.06 ± 0.04,1.08 ± 0.037,1.1 ± 0.076,1.13 ± 0.095
UniProt O43237 and related entries,0.9716 ± 0.0075,1.03 ± 0.021,1.01 ± 0.028,1.09 ± 0.073,1.07 ± 0.12,1.07 ± 0.085,1.11 ± 0.14,1.15 ± 0.14
HTATSF1 (UniProt O43719),0.933 ± 0.054,0.957 ± 0.075,0.948 ± 0.08,0.912 ± 0.091,0.885 ± 0.087,0.912 ± 0.1,0.903 ± 0.078,0.882 ± 0.12
NDUFS4 (UniProt O43181),1 ± 0.029,1.047 ± 0.0028,1.08 ± 0.053,1.12 ± 0.1,1.09 ± 0.12,1.1 ± 0.12,1.14 ± 0.18,1.1 ± 0.15
M0QZM1 and related entries (UniProt P52272),1 ± 0.057,1.05 ± 0.049,1.11 ± 0.064,1.12 ± 0.08,1.17 ± 0.083,1.12 ± 0.1,1.19 ± 0.087,1.16 ± 0.083
M0QYA8 and related entries (UniProt Q8IV63),1.01 ± 0.04,1.061 ± 0.0092,1.13 ± 0.058,1.2 ± 0.041,1.28 ± 0.058,1.26 ± 0.042,1.31 ± 0.081,1.29 ± 0.083
RRP9 (UniProt O43818),0.993 ± 0.094,1.05 ± 0.11,0.977 ± 0.11,1.03 ± 0.092,1 ± 0.12,1.1 ± 0.09,1.07 ± 0.12,1.13 ± 0.12
UniProt O14773 and related entries,0.972 ± 0.072,0.91 ± 0.053,0.96 ± 0.034,0.973 ± 0.05,1.03 ± 0.014,1.01 ± 0.065,0.995 ± 0.094,1.02 ± 0.029

# As a short view, part of the list above:
Target,NP40-soluble protein abundance (concentration: 0.1mM),NP40-soluble protein abundance (concentration: 0.5mM),NP40-soluble protein abundance (concentration: 1mM),NP40-soluble protein abundance (concentration: 2mM),NP40-soluble protein abundance (concentration: 4mM),NP40-soluble protein abundance (concentration: 6mM),NP40-soluble protein abundance (concentration: 8mM),NP40-soluble protein abundance (concentration: 10mM)
XPO1 (UniProt O14980),1.01 ± 0.027,1.02 ± 0.033,0.936 ± 0.022,0.926 ± 0.072,0.916 ± 0.054,0.918 ± 0.033,0.882 ± 0.023,0.848 ± 0.044
UniProt O14647 and related entries,1.09 ± 0.07,1.05 ± 0.066,1.25 ± 0.088,1.23 ± 0.054,1.34 ± 0.1,1.47 ± 0.092,1.56 ± 0.22,1.68 ± 0.23
KPNA4 (UniProt O00629),0.989 ± 0.054,1.05 ± 0.054,1.06 ± 0.048,1.02 ± 0.067,1.03 ± 0.046,1.05 ± 0.095,1.07 ± 0.038,1.05 ± 0.063
UniProt O43491-4|E9PHY5 and related entries,0.951 ± 0.068,0.947 ± 0.066,0.916 ± 0.058,0.853 ± 0.073,0.843 ± 0.08,0.875 ± 0.069,0.897 ± 0.066,0.87 ± 0.061
ZNF609 (UniProt O15014),1.01 ± 0.058,1 ± 0.031,1.05 ± 0.015,1.07 ± 0.071,1.06 ± 0.04,1.08 ± 0.037,1.1 ± 0.076,1.13 ± 0.095
UniProt O43237 and related entries,0.9716 ± 0.0075,1.03 ± 0.021,1.01 ± 0.028,1.09 ± 0.073,1.07 ± 0.12,1.07 ± 0.085,1.11 ± 0.14,1.15 ± 0.14
HTATSF1 (UniProt O43719),0.933 ± 0.054,0.957 ± 0.075,0.948 ± 0.08,0.912 ± 0.091,0.885 ± 0.087,0.912 ± 0.1,0.903 ± 0.078,0.882 ± 0.12
NDUFS4 (UniProt O43181),1 ± 0.029,1.047 ± 0.0028,1.08 ± 0.053,1.12 ± 0.1,1.09 ± 0.12,1.1 ± 0.12,1.14 ± 0.18,1.1 ± 0.15
M0QZM1 and related entries (UniProt P52272),1 ± 0.057,1.05 ± 0.049,1.11 ± 0.064,1.12 ± 0.08,1.17 ± 0.083,1.12 ± 0.1,1.19 ± 0.087,1.16 ± 0.083
M0QYA8 and related entries (UniProt Q8IV63),1.01 ± 0.04,1.061 ± 0.0092,1.13 ± 0.058,1.2 ± 0.041,1.28 ± 0.058,1.26 ± 0.042,1.31 ± 0.081,1.29 ± 0.083

# — the supplement of paper PMC6411743
